The values below come from article doi:10.1101/2020.09.01.278846 (bioRxiv, 2020).

By UniProt entry, the sequences of proteins in these tests, tags left out. Residues count along the entry.
UniProt E9Q7P9, residues 21-1152: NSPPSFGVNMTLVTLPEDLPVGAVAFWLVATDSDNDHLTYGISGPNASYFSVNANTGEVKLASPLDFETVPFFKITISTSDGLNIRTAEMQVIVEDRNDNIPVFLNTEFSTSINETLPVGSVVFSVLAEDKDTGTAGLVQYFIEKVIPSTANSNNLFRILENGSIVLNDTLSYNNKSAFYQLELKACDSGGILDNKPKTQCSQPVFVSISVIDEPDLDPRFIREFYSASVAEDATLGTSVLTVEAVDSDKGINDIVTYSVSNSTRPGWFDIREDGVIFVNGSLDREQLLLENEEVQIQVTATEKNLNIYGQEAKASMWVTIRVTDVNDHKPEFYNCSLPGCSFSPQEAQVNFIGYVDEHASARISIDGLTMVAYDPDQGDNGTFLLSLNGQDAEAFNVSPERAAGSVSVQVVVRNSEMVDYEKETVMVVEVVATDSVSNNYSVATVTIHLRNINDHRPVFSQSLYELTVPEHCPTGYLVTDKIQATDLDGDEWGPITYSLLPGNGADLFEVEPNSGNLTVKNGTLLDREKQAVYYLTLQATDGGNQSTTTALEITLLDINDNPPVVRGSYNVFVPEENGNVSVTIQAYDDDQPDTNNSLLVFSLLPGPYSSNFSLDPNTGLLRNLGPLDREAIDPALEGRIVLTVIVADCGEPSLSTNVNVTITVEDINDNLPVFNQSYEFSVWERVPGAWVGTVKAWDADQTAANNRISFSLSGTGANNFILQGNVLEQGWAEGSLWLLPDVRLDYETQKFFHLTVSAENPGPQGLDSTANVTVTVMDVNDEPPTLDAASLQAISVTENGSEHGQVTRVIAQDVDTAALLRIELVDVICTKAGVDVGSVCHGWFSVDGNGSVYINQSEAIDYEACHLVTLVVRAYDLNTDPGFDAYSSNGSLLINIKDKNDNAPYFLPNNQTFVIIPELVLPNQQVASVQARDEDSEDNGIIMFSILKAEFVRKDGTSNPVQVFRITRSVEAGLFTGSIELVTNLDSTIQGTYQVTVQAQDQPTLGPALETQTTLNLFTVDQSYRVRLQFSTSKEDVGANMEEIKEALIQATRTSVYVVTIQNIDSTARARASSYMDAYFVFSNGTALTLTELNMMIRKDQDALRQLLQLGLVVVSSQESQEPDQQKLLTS

No constants are given. Whether binding was seen depends on the method and setting.

The experiment concerns the target mm PCDH24 EC1-MAD10Fc (mouse) (UniProt E9Q7P9). The experiment is described as follows: bead aggregation assay.

Take “mm PCDH24 EC1-MAD10Fc (from UniProt E9Q7P9 21-1152) (Fc fusion)”: the binding result is recorded as “no binding”.
